In patent US20140223597A1, “Mutated Hydroxyphenylpyruvate Dioxygenase, DNA Sequence and Isolation of Plants Which Are Tolerant To HPPD Inhibitor Herbicides” (Bayer CropScience AG, priority 2008, published 2014):
Some results were stated once for a whole list of compounds, not compound by compound.

Test system: Arabidopsis thaliana HPPD
Experiment: Assay for HPPD activity (4-HPP consumption, DNP photometric readout at 405 nm) in presence and absence of Tembotrione
Type: biochemical
Settings: no inhibitor
Protocol: HPPD produces homogentisate and CO2 from 4-HPP and O2. The enzyme is incubated with its substrate 4-HPP in the presence or absence of an inhibitor. L-ascorbic acid is present as a reductant to retain the active site iron in the ferrous form and Catalase is present to degrade toxic H2O2. After an incubation time of one hour, the reaction is stopped by addition of 2,4-Dinitrophenylhydrazine (DNP). DNP forms a hydrazone derivative with the remaining 4-HPP molecules in the assay mixture which appears in an amber-brown colour at an alkaline pH. The amount of unconsumed 4-HPP is measured photometrically at 405 nm.
For preparation of inhibitor stock solutions, Tembotrione (MW=440.82) and DKN (Mw=359.3) are dissolved in DMSO to a concentration of 10 mM. […] Further dilutions are made with ddH2O to obtain the inhibitor solutions used in the assay (5 μM, 10 μM and 20 μM). […] A 2% DMSO solution provides for half of the assay mixture in uninhibited reactions to normalize a possible inhibiting effect of DMSO.
The assay is designed for a HPPD concentration of 444 nM on a monomeric basis and a 4-HPP concentration of 500 μM. This corresponds to 44.4 pmol HPPD and 50 nmol 4-HPP in a 100 μL-assay mixture, resulting in an approximate 1000-fold excess of substrate in relation to the enzyme. The calculated theoretical molecular weight of an AtHPPD subunit is 49.515 kD which results in 2.2 μg HPPD per assay mixture. The calculated theoretical molecular weight of a PfHPPD subunit is 41.205 kD, resulting in 1.8 μg HPPD per assay mixture. The enzyme solution provides for one quarter of the assay mixture volume, so enzyme stock solutions are produced by diluting AtHPPD solutions to 88 μg*mL^−1 with 50 mM TRIS buffer; PfHPPD solutions are diluted to 72 μg*mL^−1.
The inhibitor concentrations (2.5 μM, 5 μM and 10 μM) provide for 5-fold, 10-fold and 20-fold excess of inhibitor compared to the amount of enzyme. A buffer/substrate solution is prepared which provides for one quarter of the assay mixture. 2.5 mL of buffer/substrate solution contain 1 mL 1 M TRIS buffer, 500 μL 10 mM 4-HPP solution, 500 μL 200 mM L-ascorbic acid solution, 13 μL Catalase solution and 487 μL ddH2O. The assay is carried out in Greiner F-bottom 96 well microplates and all reactions are carried out as triplicates. The controls are carried out sixfold per plate and contain either 25 μL 50 mM TRIS instead of HPPD solution (corresponding to 0% consumption of 4-HPP) or a buffer/substrate solution that contains 500 μL 1 M TRIS instead of 500 μL 10 mM 4-HPP (corresponding to 100% consumption of HPP). The reaction is started by addition of 25 μL HPPD solution to a mixture of 50 μL of the respective inhibitor solution or 50 μL 2% DMSO and 25 μL buffer/substrate solution. The reaction is allowed to proceed for 1 h at room temperature. The reaction is stopped and coloration of 4-HPP is induced by addition of 50 μL 0.04% DNP/3.8 N HCl solution. After 15 min, addition of 100 μL 5 N KOH leads to the colour shift of the hydrazone derivative. Photometric measurement with a BMG FLUOstar Galaxy microplate reader is carried out immediately at 405 nm and data obtained is used for analysis of HPPD activities in presence and absence of an inhibitor.

Molecule | uninhibited activity of AtHPPD mutant relative to the WT enzyme
Gly422 mutant Tyr: Arabidopsis thaliana HPPD (SEQ ID NO 4) with Gly422 replaced by Tyr, N-terminal His6-tag (protein, UniProt P93836 1-445, looked up, variant G422Y, N-terminal His6-tag) 4-hydroxyphenylpyruvate …: MGHQNAAVSENQNHDDGAASSPGFKLVGFSKFVRKNPKSDKFKVKRFHHIEFWCGDATNVARRFSWGLGMRFSAKSDLSTGNMVHASYLLTSGDLRFLFTAPYSPSLSAGEIKPTTTASIPSFDHGSCRSFFSSHGLGVRAVAIEVEDAESAFSISVANGAIPSSPPIVLNEAVTIAEVKLYGDVVLRYVSYKAEDTEKSEFLPGFERVEDASSFPLDYGIRRLDHAVGNVPELGPALTYVAGFTGFHQFAEFTADDVGTAESGLNSAVLASNDEMVLLPINEPVHGTKRKSQIQTYLEHNEGAGLQHLALMSEDIFRTLREMRKRSSIGGFDFMPSPPPTYYQNLKKRVGDVLSDDQIKECEELGILVDRDDQGTLLQIFTKPLGDRPTIFIEIIQRVGCMMKDEEGKAYQSGGCGGFGKYNFSELFKSIEEYEKTLEAKQLVG | ≥ 70%
Gly422 mutant Val: Arabidopsis thaliana HPPD (SEQ ID NO 4) with Gly422 replaced by Val, N-terminal His6-tag (protein, UniProt P93836 1-445, looked up, variant G422V, N-terminal His6-tag) 4-hydroxyphenylpyruvate …: MGHQNAAVSENQNHDDGAASSPGFKLVGFSKFVRKNPKSDKFKVKRFHHIEFWCGDATNVARRFSWGLGMRFSAKSDLSTGNMVHASYLLTSGDLRFLFTAPYSPSLSAGEIKPTTTASIPSFDHGSCRSFFSSHGLGVRAVAIEVEDAESAFSISVANGAIPSSPPIVLNEAVTIAEVKLYGDVVLRYVSYKAEDTEKSEFLPGFERVEDASSFPLDYGIRRLDHAVGNVPELGPALTYVAGFTGFHQFAEFTADDVGTAESGLNSAVLASNDEMVLLPINEPVHGTKRKSQIQTYLEHNEGAGLQHLALMSEDIFRTLREMRKRSSIGGFDFMPSPPPTYYQNLKKRVGDVLSDDQIKECEELGILVDRDDQGTLLQIFTKPLGDRPTIFIEIIQRVGCMMKDEEGKAYQSGGCGGFGKVNFSELFKSIEEYEKTLEAKQLVG | ≥ 70%
